According to US20170210813A1:
Results are given in words; binding and its absence hold for the method and conditions named. Some entries that bind do so weakly or less than the wild type.

Target: human PDGFRb.mFc (human)
Experiment: SPR (Biacore 3000), 30 nM ligand over hPDGFRb.mFc captured by anti-mouse Fc, no antibody

Q: For “PDGF-AB (from UniProt P04085 87-211; P01127 82-190) (ligand)”, which binding is on record?
A: binds

Q: Which binding does the source give for “PDGF-DD (from UniProt Q9GZP0 250-370) (ligand)” here?
A: binds
